Source: ChEMBL document CHEMBL3988442, “University of Dundee, Small-Polar-MMV Screening Library” (2021).

Sequences of proteins named here, by UniProt entry; tags and fusion partners are left off. Residues count along the entry.
UniProt Q4DA54, 1-478: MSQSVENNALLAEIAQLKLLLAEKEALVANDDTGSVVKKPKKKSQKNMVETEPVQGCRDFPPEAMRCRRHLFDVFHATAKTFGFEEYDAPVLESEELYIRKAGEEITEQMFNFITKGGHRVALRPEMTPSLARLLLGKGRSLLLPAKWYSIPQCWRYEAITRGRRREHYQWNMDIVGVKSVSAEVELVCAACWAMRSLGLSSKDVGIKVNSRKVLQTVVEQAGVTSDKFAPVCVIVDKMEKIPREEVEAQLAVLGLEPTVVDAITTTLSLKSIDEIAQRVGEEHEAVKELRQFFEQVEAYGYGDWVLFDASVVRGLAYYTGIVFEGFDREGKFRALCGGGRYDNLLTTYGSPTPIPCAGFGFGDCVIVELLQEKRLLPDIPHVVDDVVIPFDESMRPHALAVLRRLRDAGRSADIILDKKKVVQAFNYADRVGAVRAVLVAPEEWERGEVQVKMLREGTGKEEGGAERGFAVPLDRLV
UniProt A4I591, 1-473: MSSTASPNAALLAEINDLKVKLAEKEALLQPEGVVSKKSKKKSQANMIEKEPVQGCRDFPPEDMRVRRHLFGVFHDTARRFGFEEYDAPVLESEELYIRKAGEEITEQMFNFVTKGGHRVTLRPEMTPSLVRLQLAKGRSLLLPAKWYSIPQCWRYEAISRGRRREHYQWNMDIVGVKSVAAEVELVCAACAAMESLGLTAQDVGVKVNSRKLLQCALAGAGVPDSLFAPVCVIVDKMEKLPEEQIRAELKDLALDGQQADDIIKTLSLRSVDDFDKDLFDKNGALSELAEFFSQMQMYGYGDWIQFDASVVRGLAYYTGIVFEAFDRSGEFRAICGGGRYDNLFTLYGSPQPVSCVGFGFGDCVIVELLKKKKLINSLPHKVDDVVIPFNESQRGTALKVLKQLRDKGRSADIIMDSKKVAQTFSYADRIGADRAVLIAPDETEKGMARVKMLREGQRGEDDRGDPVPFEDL
UniProt P9WPC5, whole entry: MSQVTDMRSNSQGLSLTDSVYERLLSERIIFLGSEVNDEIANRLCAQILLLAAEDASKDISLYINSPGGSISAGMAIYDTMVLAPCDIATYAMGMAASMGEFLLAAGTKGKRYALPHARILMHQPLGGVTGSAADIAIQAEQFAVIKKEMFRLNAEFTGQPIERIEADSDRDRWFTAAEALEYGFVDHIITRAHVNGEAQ
UniProt P9WPC3, whole entry partner: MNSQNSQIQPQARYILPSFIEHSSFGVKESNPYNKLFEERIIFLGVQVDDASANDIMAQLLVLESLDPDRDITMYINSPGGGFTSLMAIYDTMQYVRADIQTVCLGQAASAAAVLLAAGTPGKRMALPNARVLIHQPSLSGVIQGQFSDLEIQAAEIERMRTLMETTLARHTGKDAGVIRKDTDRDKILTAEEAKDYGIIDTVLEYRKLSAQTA

Toxoplasma: 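Assay of Toxoplasma gondii numbers, read through their beta-galactosidase reporter with a colour substrate. Concentration: 10 µM. The record gives no direction; the compounds picked for IC50 retests had high values, so higher reads as fewer parasites. Of about 67,000 compounds tested this way, about 260 (0.38%) reached 50% or more in at least one test.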
Leishmania in macrophages: 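Cell assay of Leishmania donovani living inside macrophages; the read-out is not stated. Tested at 30 µM. Direction is inferred from retests: higher values go with stronger inhibition. Of about 69,000 compounds tested this way, about 1,000 (1.5%) reached 50% or more in at least one test.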
TcHisRS: 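Histidine-tRNA ligase, Trypanosoma cruzi CL Brener (UniProt Q4DA54). Enzyme assay of histidyl-tRNA synthetase; the read-out is not stated. Tested at 30 µM. The record gives no direction; compounds that gave an IC50 in retests scored well above the rest, so higher reads as stronger inhibition. Of about 69,000 compounds tested this way, about 31 (0.045%) reached 50% or more in at least one test.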
LiHisRS: 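Histidine-tRNA ligase, Leishmania infantum (UniProt A4I591). Enzyme assay of histidyl-tRNA synthetase; the read-out is not stated. Compounds at 30 µM. The record gives no direction; compounds that gave an IC50 in retests scored well above the rest, so higher reads as stronger inhibition. The assay is labelled LdHisRS but filed under L. infantum. About 69,000 compounds were tested under these conditions; 0.6% (about 410) showed 50% or more at least once.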
ClpP1P2: 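Protease assay of ClpP1P2, read by the AMC dye that it sets free. Target: ClpP1P2, Mycobacterium tuberculosis (UniProt P9WPC5 and UniProt P9WPC3). Concentration: 50 µM. Direction is inferred from only a few compounds that gave an IC50; most scored high, so higher reads as stronger inhibition. Most other retested compounds had strongly negative values. Of about 69,000 compounds tested this way, about 10 (0.015%) reached 50% or more in at least one test.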
T. brucei: 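Whole-parasite assay of Trypanosoma brucei over 72 hours; the read-out is not stated. Concentration: 30 µM. The record gives no direction; compounds that gave an IC50 in retests scored well above the rest, so higher reads as stronger inhibition. Values scatter widely below zero; nearly all retest evidence comes from the higher of the two concentrations used. Size under these conditions: about 64,000 compounds, about 940 of them at 50% or above in at least one test.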

Each number is a percent effect as filed. The controls that fix the scale are not given in the record; negative values are as filed. The compounds are a random part of those screened. Two or more numbers in one place are separate tests of the same structure; such repeats can differ widely. A dash means the value is not listed here; it may have been measured.

O=C1CCC(=O)c2oc3ccc(Br)cc3c2N1 gave Toxoplasma: -4.027%; Leishmania in macrophages: -16.45%; TcHisRS: 4.018%; LiHisRS: -1.235%; ClpP1P2: -24.31%; T. brucei: -17.67%.
[H][C@]12CC[C@]([H])(CN(C(=O)c3ccncc3)C1)N(C(=O)c1csc(C)c1)C2 gave Toxoplasma: 16.07%; Leishmania in macrophages: 12.38%; T. brucei: 3.191%.
Cc1ccsc1CCNC(=O)CCC(=O)NC1CCCC1 gave Toxoplasma: 1.514%; Leishmania in macrophages: 16.22%; TcHisRS: 0%; LiHisRS: 13.33%; ClpP1P2: -1.672%; T. brucei: -32.99%.
Cc1ccc(CN(CCCn2ccnc2)Cc2cccs2)s1.O=C(O)CC(O)(CC(=O)O)C(=O)O gave Toxoplasma: 13.55%; Leishmania in macrophages: 54.49% & 30.08%; T. brucei: 1.037%.
Cn1nc2c(cc1=O)CN(CC(=O)Nc1cc(C(C)(C)C)no1)CC2 gave Toxoplasma: 0.9438%; Leishmania in macrophages: -30.72%; TcHisRS: 3.175%; LiHisRS: 112.1%; ClpP1P2: -7.798%; T. brucei: -11.13%.
O=C(C1CCCN1Cc1nc(-c2ccco2)no1)N1CCSCC1 (stereo not drawn) gave Toxoplasma: 5.111%; Leishmania in macrophages: 4.206%; TcHisRS: 4.624%; LiHisRS: 15.18%; ClpP1P2: -38.3%; T. brucei: -3.351%.
Cc1ccc2c(c1)C(NC(=O)N(C)C)CC21CCN(C(C)C)CC1 (stereo not drawn) gave TcHisRS: 10.48%; LiHisRS: 13.89%; ClpP1P2: -2.154%.
COc1nn(C)c2c1CCCN(C(=O)c1c[nH]cn1)C2 gave Toxoplasma: 19.88%; Leishmania in macrophages: 13.31%; TcHisRS: -2.062%; LiHisRS: 6%; ClpP1P2: -1.573%; T. brucei: -13.31%.
CN1CCC2(CC1)CCN(C(=O)c1onc3ccccc13)C2 gave Toxoplasma: 28.9%; Leishmania in macrophages: 47.49%; TcHisRS: 7%; LiHisRS: 18.37%; ClpP1P2: 12.53%; T. brucei: -14.19%.
O=C(O)C(F)(F)F.[H][C@@]12CN(C)CCO[C@]1([H])CN(S(=O)(=O)c1ccccc1)C2 gave Toxoplasma: -14.81%; Leishmania in macrophages: 29.49%; T. brucei: -23.25%.
CC(C)NC(=O)N1CCCC(c2nnc(CN3CCOCC3)n2C)C1 (stereo not drawn) gave Toxoplasma: -1.874%; Leishmania in macrophages: 22.21%; TcHisRS: 7.143%; LiHisRS: 13.89%; ClpP1P2: -0.3613%; T. brucei: -38.43%.
Cc1nc2ccccc2c(=O)n1CCC(=O)N1CCSCC1 gave Toxoplasma: -11.01%; Leishmania in macrophages: 12.46%; TcHisRS: 1.901%; LiHisRS: 10.4%; ClpP1P2: 11.5%; T. brucei: 9.946%.
O=C(NC1CCS(=O)(=O)C1)c1ccc(-c2ccc(F)cc2)s1 (stereo not drawn) gave Toxoplasma: -0.1888%; Leishmania in macrophages: 18.38%; TcHisRS: 6.349%; LiHisRS: -6.061%; ClpP1P2: 4.773%; T. brucei: -7.235%.
Cc1nc(Nc2cnccn2)cc(C2CCCN(C(C)C)C2)n1 (stereo not drawn) gave Toxoplasma: 8.036%; Leishmania in macrophages: 21.93%; TcHisRS: 3.745%; LiHisRS: 12%; ClpP1P2: -6.499%; T. brucei: 16.84%.
Cn1cc(-c2noc(C3(C)CCOCC3)n2)cn1 gave Toxoplasma: -0.477%; Leishmania in macrophages: 20.65%; TcHisRS: 9.524%; LiHisRS: 10.96%; ClpP1P2: 11.41%; T. brucei: -46.8%.
CC(C)N1CCCn2nc(C(=O)NCc3ccccc3F)cc2C1 gave Toxoplasma: 20.67%; Leishmania in macrophages: 16.29%; TcHisRS: 0%; LiHisRS: 15.08%; ClpP1P2: -6.046%; T. brucei: -66.85%.
CCNc1ccnc(NCC2(N(C)C)CCOCC2)n1 gave Toxoplasma: -8.864%; Leishmania in macrophages: 31.76%; TcHisRS: 0%; LiHisRS: 12.86%; ClpP1P2: -0.9342%; T. brucei: -13.52%.
CCc1nc(CN2CCCN(c3nccs3)CC2)no1 gave Toxoplasma: 0.7411%; Leishmania in macrophages: -5.1%; TcHisRS: 0.7634%; LiHisRS: 8.219%; ClpP1P2: 16.19%; T. brucei: -30.96%.
Cc1ncc(CNCC(C)O)c2cc(C(=O)c3ccc(Br)cc3)oc12.Cl (stereo not drawn) gave Toxoplasma: 12.01%; Leishmania in macrophages: 46.85%; T. brucei: -11.4%.
CNS(=O)(=O)c1cccc(CNc2ccc(C(F)(F)F)nn2)c1 gave Toxoplasma: 0.2872%; Leishmania in macrophages: 12.97%; TcHisRS: 3.008%; LiHisRS: 19.05%; ClpP1P2: 6.036%; T. brucei: -17.84%.

The first 2 entries again:

| Compound | Toxoplasma | Leishmania in macrophages | TcHisRS | LiHisRS | ClpP1P2 | T. brucei |
|---|---|---|---|---|---|---|
| `O=C1CCC(=O)c2oc3ccc(Br)cc3c2N1` | -4.027% | -16.45% | 4.018% | -1.235% | -24.31% | -17.67% |
| `[H][C@]12CC[C@]([H])(CN(C(=O)c3ccncc3)C1)N(C(=O)c1csc(C)c1)C2` | 16.07% | 12.38% | - | - | - | 3.191% |